Reference: doi:10.1101/2022.10.19.512833 (bioRxiv, 2022)
These are yes or no findings as the source states them, for the method shown. Binding seen in cells or lysates may run through a third protein. These calls come from enrichment with a bait or labelling near it, and not all partners need be listed. For some of these results: No binding means not detected with the bait. One block for each molecule: values may come before it.

Amino acid sequences for entries named in this document (tags omitted). A change or cut given only in a name is not applied to a line headed by its entry. Chains listed by the source or under a name are the forms on record and can include a tag or linker.
NFE2L1_(228-243) biotinylated peptide, double repeat (Q14494, form named): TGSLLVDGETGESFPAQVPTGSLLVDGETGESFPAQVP
PAK1_(88-103) biotinylated peptide, double repeat (Q13153, form named): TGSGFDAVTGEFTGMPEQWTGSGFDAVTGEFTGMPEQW
UniProt Q14145: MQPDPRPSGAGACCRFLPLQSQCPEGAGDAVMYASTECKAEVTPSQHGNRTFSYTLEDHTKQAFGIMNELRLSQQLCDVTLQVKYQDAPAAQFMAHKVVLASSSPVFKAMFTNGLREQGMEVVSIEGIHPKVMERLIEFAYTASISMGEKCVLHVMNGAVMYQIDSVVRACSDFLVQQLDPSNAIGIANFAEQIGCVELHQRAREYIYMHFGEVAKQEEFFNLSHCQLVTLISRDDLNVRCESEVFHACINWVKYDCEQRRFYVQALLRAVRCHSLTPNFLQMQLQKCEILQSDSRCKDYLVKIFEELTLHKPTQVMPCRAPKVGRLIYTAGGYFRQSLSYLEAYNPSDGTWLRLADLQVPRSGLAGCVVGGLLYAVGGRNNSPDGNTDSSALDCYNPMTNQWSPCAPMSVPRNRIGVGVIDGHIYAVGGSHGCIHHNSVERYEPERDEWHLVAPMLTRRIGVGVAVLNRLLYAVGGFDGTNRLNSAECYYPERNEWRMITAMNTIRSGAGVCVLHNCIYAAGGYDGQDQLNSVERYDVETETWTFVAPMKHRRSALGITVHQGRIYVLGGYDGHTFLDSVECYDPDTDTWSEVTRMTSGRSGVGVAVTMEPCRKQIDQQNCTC
UniProt P06748: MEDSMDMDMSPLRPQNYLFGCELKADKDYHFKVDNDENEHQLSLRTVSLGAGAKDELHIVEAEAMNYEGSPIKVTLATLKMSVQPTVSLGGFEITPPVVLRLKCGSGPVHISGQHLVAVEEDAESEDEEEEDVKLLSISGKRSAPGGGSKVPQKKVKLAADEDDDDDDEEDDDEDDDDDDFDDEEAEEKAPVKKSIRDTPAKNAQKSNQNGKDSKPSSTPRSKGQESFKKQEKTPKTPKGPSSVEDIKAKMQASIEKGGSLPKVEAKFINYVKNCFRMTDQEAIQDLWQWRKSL
UniProt P15927: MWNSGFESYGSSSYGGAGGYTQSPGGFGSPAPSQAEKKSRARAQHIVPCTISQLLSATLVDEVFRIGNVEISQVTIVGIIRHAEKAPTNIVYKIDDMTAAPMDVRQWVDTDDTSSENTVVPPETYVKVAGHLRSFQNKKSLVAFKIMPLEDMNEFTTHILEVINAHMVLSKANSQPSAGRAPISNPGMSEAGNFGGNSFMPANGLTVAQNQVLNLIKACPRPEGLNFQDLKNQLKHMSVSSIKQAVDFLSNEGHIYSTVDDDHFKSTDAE
UniProt P68400: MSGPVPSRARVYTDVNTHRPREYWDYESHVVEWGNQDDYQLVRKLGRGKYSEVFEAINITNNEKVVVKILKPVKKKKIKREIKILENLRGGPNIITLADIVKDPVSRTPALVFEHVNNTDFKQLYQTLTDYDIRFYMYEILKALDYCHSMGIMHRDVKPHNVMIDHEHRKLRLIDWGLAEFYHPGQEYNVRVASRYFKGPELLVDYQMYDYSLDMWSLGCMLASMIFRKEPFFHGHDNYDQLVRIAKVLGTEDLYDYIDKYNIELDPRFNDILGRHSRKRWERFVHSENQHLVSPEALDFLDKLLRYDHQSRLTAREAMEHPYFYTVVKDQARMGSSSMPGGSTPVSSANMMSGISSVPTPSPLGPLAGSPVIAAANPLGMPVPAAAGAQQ
UniProt Q00987: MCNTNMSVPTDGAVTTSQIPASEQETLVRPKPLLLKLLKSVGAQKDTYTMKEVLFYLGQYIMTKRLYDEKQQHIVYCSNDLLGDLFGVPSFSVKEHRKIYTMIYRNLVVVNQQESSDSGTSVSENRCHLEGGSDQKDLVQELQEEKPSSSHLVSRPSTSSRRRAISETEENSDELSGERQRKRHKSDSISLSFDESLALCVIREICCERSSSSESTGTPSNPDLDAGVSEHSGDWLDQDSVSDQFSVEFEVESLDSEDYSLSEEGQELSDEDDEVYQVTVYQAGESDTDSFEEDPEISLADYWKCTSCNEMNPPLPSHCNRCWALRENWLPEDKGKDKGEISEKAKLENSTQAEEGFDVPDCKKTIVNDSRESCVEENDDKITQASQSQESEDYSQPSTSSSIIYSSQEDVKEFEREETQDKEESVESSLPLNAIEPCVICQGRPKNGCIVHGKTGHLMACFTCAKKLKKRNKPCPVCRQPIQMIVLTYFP
UniProt P27694: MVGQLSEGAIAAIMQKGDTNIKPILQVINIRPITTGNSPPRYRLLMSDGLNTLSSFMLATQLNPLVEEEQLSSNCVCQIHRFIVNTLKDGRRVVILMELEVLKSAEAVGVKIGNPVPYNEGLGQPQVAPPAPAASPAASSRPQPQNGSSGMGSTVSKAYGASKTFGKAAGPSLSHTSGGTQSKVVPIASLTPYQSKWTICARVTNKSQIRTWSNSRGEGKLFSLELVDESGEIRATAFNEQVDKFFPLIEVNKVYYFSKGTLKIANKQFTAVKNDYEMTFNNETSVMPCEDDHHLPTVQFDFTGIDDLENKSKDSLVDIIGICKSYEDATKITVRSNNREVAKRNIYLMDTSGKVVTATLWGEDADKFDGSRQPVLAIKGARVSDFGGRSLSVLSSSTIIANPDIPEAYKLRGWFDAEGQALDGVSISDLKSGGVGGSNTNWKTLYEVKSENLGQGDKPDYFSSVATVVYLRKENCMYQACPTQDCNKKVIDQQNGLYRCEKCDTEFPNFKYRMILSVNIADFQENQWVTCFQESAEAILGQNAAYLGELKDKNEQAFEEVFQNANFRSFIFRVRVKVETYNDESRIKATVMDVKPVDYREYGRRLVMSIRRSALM

Tests used:
Assay in all cases: affinity purification with mass spectrometry
[1] = target: T1, PLEC_(4459-4474) biotinylated peptide, double repeat (human) (UniProt Q15149)
T1 sequence (peptide, N-terminal biotin; C-terminal amide): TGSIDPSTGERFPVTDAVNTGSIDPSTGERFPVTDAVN

[2] = target: NFE2L1_(228-243) biotinylated peptide, double repeat (human) (UniProt Q14494)
[3] = target: T2, NUMB_(616-631) biotinylated peptide, single repeat (human) (UniProt P49757)
T2 sequence (peptide, N-terminal biotin; C-terminal amide): TGSFEAQWAALENKSKQRT

[4] = target: T3, RNF115_(69-84) biotinylated peptide, double repeat (human) (UniProt Q9Y4L5)
T3 sequence (peptide, N-terminal biotin; C-terminal amide): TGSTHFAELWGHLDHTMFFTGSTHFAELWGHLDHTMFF

[5] = target: T4, NUMB_(616-631) biotinylated peptide, double repeat (human) (UniProt P49757)
T4 sequence (peptide, N-terminal biotin; C-terminal amide): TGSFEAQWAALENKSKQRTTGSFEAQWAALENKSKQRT

[6] = target: T5, RNF115_(69-84) biotinylated peptide, single repeat (human) (UniProt Q9Y4L5)
T5 sequence (peptide, N-terminal biotin; C-terminal amide): TGSTHFAELWGHLDHTMFF

[7] = target: PAK1_(88-103) biotinylated peptide, single repeat (human) (UniProt Q13153)
[8] = target: NFE2L1_(228-243) biotinylated peptide, single repeat (human) (UniProt Q14494)
[9] = target: PAK1_(88-103) biotinylated peptide, double repeat (human) (UniProt Q13153)
[10] = target: T6, PLEC_(4459-4474) biotinylated peptide, single repeat (human) (UniProt Q15149)
T6 sequence (peptide, N-terminal biotin; C-terminal amide): TGSIDPSTGERFPVTDAVN

Molecule: KEAP1 (from UniProt Q14145 1-624)
binding [7]: binds
binding [8]: binds
binding [1]: binds
binding [2]: binds
binding [9]: binds
binding [10]: binds

Molecule: NPM1 (from UniProt P06748 1-294)
binding [1]: binds
binding [2]: binds

Molecule: RPA2 (from UniProt P15927 1-270)
binding [7]: binds
binding [9]: binds

B1: BANF1 (protein, UniProt O75531 1-89)
chain: MTTSQKHRDFVAEPMGEKPVGSLAGIGEVLGKKLEERGFDKAYVVLGQFLVLKKDEDLFREWLKDTCGANAKQSRDCFGCLREWCDAFL
binding [7]: binds
binding [9]: binds

B2: ATN1 (protein, UniProt P54259 1-1190)
chain: MKTRQNKDSMSMRSGRKKEAPGPREELRSRGRASPGGVSTSSSDGKAEKSRQTAKKARVEEASTPKVNKQGRSEEISESESEETNAPKKTKTEQELPRPQSPSDLDSLDGRSLNDDGSSDPRDIDQDNRSTSPSIYSPGSVENDSDSSSGLSQGPARPYHPPPLFPPSPQPPDSTPRQPEASFEPHPSVTPTGYHAPMEPPTSRMFQAPPGAPPPHPQLYPGGTGGVLSGPPMGPKGGGAASSVGGPNGGKQHPPPTTPISVSSSGASGAPPTKPPTTPVGGGNLPSAPPPANFPHVTPNLPPPPALRPLNNASASPPGLGAQPLPGHLPSPHAMGQGMGGLPPGPEKGPTLAPSPHSLPPASSSAPAPPMRFPYSSSSSSSAAASSSSSSSSSSASPFPASQALPSYPHSFPPPTSLSVSNQPPKYTQPSLPSQAVWSQGPPPPPPYGRLLANSNAHPGPFPPSTGAQSTAHPPVSTHHHHHQQQQQQQQQQQQQQQQQQQHHGNSGPPPPGAFPHPLEGGSSHHAHPYAMSPSLGSLRPYPPGPAHLPPPHSQVSYSQAGPNGPPVSSSSNSSSSTSQGSYPCSHPSPSQGPQGAPYPFPPVPTVTTSSATLSTVIATVASSPAGYKTASPPGPPPYGKRAPSPGAYKTATPPGYKPGSPPSFRTGTPPGYRGTSPPAGPGTFKPGSPTVGPGPLPPAGPSGLPSLPPPPAAPASGPPLSATQIKQEPAEEYETPESPVPPARSPSPPPKVVDVPSHASQSARFNKHLDRGFNSCARSDLYFVPLEGSKLAKKRADLVEKVRREAEQRAREEKEREREREREKEREREKERELERSVKLAQEGRAPVECPSLGPVPHRPPFEPGSAVATVPPYLGPDTPALRTLSEYARPHVMSPGNRNHPFYVPLGAVDPGLLGYNVPALYSSDPAAREREREARERDLRDRLKPGFEVKPSELEPLHGVPGPGLDPFPRHGGLALQPGPPGLHPFPFHPSLGPLERERLALAAGPALRPDMSYAERLAAERQHAERVAALGNDPLARLQMLNVTPHHHQHSHIHSHLHLHQQDAIHAASASVHPLIDPLASGSHLTRIPYPAGTLPNPLLPHPLHENEVLRHQLFAAPYRDLPASLSAPMSAAHQLQAMHAQSAELQRLALEQQQWLHAHHPLHSVPLPAQEDYYSHLKKESDKPL
binding [4]: binds
binding [6]: binds

Now from value to molecule:

binding [1]: binds
binding [2]: binds
Molecule: CSNK2A1 (from UniProt P68400 1-391)

binding [3]: no binding
binding [4]: no binding
binding [5]: no binding
binding [6]: no binding
Molecule: E3 ubiquitin-protein ligase MDM2 (from UniProt Q00987 1-491)

binding [7]: binds
binding [9]: binds
Molecule: RPA1 (from UniProt P27694 1-616)
